Experimental data taken from CN110642952A.
These are yes or no findings as the source states them, for the method shown. Some binding calls cover weakened binding; strength is not graded here.

Chains of the proteins cited; added tags and fusions are not shown. Lines headed by an entry give the natural chain unless they say otherwise; changes in a name come on top.
UniProt P21860: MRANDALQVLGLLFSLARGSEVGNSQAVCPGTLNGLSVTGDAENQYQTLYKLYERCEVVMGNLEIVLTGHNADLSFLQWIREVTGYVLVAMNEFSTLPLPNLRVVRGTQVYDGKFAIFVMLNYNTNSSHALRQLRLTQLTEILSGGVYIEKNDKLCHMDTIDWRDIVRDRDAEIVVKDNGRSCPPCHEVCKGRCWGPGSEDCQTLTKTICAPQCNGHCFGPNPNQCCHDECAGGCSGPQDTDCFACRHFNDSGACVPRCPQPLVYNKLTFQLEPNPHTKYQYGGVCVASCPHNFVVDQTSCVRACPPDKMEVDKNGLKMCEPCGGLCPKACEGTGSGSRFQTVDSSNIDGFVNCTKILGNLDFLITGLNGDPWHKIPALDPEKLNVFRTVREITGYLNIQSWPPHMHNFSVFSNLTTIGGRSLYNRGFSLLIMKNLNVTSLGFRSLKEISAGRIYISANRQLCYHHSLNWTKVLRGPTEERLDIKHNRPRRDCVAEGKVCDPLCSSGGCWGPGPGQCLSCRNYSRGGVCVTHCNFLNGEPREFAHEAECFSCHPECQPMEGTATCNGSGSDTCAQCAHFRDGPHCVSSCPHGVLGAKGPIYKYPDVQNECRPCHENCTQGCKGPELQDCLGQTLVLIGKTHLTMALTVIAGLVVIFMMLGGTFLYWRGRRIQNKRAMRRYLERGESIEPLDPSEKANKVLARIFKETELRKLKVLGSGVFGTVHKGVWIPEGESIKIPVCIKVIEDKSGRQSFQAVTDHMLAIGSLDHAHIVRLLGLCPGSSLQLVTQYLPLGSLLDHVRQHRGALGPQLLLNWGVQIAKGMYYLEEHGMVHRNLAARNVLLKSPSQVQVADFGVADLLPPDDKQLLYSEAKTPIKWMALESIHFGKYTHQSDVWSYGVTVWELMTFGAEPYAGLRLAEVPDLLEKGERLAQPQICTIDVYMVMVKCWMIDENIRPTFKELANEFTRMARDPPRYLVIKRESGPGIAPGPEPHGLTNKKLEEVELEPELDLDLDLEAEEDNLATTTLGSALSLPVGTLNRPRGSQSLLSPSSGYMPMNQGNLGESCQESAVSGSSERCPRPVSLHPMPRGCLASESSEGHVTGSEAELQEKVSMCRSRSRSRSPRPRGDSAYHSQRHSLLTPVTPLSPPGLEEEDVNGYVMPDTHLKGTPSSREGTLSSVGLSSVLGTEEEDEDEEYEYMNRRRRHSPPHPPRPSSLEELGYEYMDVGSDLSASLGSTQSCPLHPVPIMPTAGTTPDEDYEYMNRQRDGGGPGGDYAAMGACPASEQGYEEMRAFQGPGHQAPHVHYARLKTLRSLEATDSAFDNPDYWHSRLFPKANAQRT

Legend:
[1] = biological target: HER3胞外区结构域DⅢ与hGH融合表达 (human) (UniProt P01241); experiment: ELISA: antibody coated, hGH-fused HER3 domain segments
HER3 (human) = HER3 (human) (UniProt P21860); experiment: ELISA of 72 h CHO culture supernatant, HRP goat anti-human IgG
[2] = biological target: 细胞表面Her3分子 (SKBR-3细胞) (human) (UniProt P21860); experiment: flow cytometry on SKBR-3 cells, antibody 10 μg/ml, FITC goat anti-mouse IgG
[3] = biological target: HER3胞外区结构域DⅠ与hGH融合表达 (human) (UniProt P01241); experiment: ELISA: antibody coated, hGH-fused HER3 domain segments

| Binder | binding [1] | binding (HER3 (human)) | binding [2] | binding [3] |
| --- | --- | --- | --- | --- |
| HER3鼠源单克隆抗体993 (antibody, V domains shown) VH: EVKLVESGGGLVKPGGSLKLSCAASGFTFSSYSLSWVRQTPEKRLEWVASITFGGTAYYSDSVKGRFTISRDNARNILYLQMSSLKSEDTAMYYCVRGDGYEDPMDYWGQGTSVTVSS VL: DIVMTQTTVSLAVSLGQRATISCRASESVDSYGKSFMHWYQQKPGQPPKLLIYRASNLESGIPARFSGSGSRTDFTLTINPVEADDVSTYYCQQSNEDPYTFGGGTKLEIR | binds | – | – | – |
| HER3人-鼠嵌合单克隆抗体993 (antibody, human IgG1, kappa, V domains shown) VH: EVKLVESGGGLVKPGGSLKLSCAASGFTFSSYSLSWVRQTPEKRLEWVASITFGGTAYYSDSVKGRFTISRDNARNILYLQMSSLKSEDTAMYYCVRGDGYEDPMDYWGQGTSVTVSS VL: DIVMTQTTVSLAVSLGQRATISCRASESVDSYGKSFMHWYQQKPGQPPKLLIYRASNLESGIPARFSGSGSRTDFTLTINPVEADDVSTYYCQQSNEDPYTFGGGTKLEIRT | – | binds | – | – |
| HER3鼠源单克隆抗体927 (antibody, V domains shown) VH: EVQLQQSGPELVKPGASVKISCKASGYSFTSYYIHWVKQRPGQGLEWIGWIFPRSGHTNYNEKFKGKATLTADTSSSTAYMQVSSLTSEDSAVYFCARSRDYYGTNAMDYWGQGTSVTVSS VL: DIVMTQSPSSLTVTAGEKVTMSCKSSQSLFNSGNQKNYLTWYQQKPGQPPKLLIYWASTRESGVPDRFTGSGSGTDFTLTISSVQAEDLAVYYCQNDYSYPYTFGGGTKLEIKR | – | – | binds | binds |
| HER3人-鼠嵌合单克隆抗体1050 (antibody, human IgG1, kappa, V domains shown) VH: QVQLQQSGPELVKPGASVKISCKASGYSFTSYYIHWVKQRPGQGLEWIGWIFPGSGHTKCNENFKAKATLTADTSSSTAYMQLSSLTSEDSAVYFCARSRDYYGSNAVDYWGQGTSVTVSS VL: DIVMTQSPSSLTVTAGEKVTMSCKSSQSLLNSGNQKNYLTWYQQKPGQPPKLLIYWASTRESGVPDRFSGSGSGTDFTLTISSVQAEDLAVYYCQNDYSYPYTFGGGTKLEIKR | – | binds | – | – |

Other lines, results leading:

| binding [1] | binding (HER3 (human)) | binding [2] | binding [3] | Binder |
| --- | --- | --- | --- | --- |
| binds | – | binds | – | HER3鼠源单克隆抗体1044 (antibody, V domains shown) VH: EVQLQQSGTELMKPGASVKISCKATGGTFSNYWIDWVKQRPGHGLEWIGEILPGSGGTDYNEKFKGKATFTADTSSNTAYMQLSSLTSEDSAVYYCARDDYDVFAYWGQGTLVTVSS VL: DIVMTQAAFSNPVTLGTSASISCRSSKSLLHSNGITYLYWYLQKPGQSPQLLIYQMSNLASGVPDRFSSSGSGTDFTLRISRVEAEDVGVYYCAQNLELPWTFGGGTKLEIKR |
| – | – | – | binds | HER3鼠源单克隆抗体1050 (antibody, V domains shown) VH: QVQLQQSGPELVKPGASVKISCKASGYSFTSYYIHWVKQRPGQGLEWIGWIFPGSGHTKCNENFKAKATLTADTSSSTAYMQLSSLTSEDSAVYFCARSRDYYGSNAVDYWGQGTSVTVSS VL: DIVMTQSPSSLTVTAGEKVTMSCKSSQSLLNSGNQKNYLTWYQQKPGQPPKLLIYWASTRESGVPDRFSGSGSGTDFTLTISSVQAEDLAVYYCQNDYSYPYTFGGGTKLEIKR |
